Measured values as given in the supplement of paper PMC12819154, “High-throughput peptide-centric local stability assay extends protein–ligand identification to membrane proteins, tissues and bacteria” (Nature Structural & Molecular Biology, 2025).
The other results are listed elsewhere or left out. Most values lie at the level of the controls, where differences are scatter.

Sequences of proteins named here, by UniProt entry; tags and fusion partners are left off. A change or cut given only in a name is not applied to a line headed by its entry.
UniProt Q2KHT3: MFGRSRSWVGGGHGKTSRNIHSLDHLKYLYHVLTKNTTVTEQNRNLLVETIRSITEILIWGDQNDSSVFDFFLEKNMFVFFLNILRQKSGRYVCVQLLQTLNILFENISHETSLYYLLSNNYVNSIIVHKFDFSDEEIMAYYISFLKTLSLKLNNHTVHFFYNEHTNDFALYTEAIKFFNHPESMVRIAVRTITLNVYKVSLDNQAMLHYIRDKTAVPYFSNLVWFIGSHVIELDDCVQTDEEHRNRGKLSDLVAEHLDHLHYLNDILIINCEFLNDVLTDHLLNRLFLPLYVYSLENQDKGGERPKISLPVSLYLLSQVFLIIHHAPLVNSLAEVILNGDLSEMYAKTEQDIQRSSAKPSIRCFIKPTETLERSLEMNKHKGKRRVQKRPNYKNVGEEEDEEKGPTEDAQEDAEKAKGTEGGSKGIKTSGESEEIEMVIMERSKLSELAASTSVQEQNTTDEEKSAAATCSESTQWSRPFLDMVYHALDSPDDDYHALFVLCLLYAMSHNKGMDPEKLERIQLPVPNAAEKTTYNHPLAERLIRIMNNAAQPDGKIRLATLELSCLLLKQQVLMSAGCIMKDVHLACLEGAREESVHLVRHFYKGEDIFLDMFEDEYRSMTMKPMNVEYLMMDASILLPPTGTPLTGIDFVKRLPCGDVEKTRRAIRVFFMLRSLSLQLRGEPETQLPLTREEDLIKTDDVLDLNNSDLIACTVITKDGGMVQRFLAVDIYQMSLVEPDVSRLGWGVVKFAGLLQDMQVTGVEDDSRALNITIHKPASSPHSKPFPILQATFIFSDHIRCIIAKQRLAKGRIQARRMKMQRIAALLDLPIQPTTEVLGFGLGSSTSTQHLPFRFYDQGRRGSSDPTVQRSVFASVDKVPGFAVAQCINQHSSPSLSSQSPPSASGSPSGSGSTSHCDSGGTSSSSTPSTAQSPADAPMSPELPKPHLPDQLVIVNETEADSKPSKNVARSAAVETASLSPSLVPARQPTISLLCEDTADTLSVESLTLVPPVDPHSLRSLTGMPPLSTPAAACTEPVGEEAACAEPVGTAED
UniProt Q15853: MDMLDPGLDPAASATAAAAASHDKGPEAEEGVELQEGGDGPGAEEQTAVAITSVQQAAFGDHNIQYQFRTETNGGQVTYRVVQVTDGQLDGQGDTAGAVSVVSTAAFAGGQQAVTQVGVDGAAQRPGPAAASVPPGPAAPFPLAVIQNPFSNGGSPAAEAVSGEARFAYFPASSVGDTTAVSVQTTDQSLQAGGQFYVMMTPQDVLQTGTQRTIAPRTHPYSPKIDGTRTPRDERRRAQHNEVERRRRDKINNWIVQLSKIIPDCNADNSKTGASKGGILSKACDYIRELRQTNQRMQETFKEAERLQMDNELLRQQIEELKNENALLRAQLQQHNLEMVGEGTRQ
UniProt Q15185: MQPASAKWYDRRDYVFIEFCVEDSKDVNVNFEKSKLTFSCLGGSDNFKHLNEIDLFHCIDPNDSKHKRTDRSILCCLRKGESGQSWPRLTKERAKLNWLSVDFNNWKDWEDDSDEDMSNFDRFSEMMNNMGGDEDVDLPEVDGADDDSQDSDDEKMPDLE
UniProt Q15811: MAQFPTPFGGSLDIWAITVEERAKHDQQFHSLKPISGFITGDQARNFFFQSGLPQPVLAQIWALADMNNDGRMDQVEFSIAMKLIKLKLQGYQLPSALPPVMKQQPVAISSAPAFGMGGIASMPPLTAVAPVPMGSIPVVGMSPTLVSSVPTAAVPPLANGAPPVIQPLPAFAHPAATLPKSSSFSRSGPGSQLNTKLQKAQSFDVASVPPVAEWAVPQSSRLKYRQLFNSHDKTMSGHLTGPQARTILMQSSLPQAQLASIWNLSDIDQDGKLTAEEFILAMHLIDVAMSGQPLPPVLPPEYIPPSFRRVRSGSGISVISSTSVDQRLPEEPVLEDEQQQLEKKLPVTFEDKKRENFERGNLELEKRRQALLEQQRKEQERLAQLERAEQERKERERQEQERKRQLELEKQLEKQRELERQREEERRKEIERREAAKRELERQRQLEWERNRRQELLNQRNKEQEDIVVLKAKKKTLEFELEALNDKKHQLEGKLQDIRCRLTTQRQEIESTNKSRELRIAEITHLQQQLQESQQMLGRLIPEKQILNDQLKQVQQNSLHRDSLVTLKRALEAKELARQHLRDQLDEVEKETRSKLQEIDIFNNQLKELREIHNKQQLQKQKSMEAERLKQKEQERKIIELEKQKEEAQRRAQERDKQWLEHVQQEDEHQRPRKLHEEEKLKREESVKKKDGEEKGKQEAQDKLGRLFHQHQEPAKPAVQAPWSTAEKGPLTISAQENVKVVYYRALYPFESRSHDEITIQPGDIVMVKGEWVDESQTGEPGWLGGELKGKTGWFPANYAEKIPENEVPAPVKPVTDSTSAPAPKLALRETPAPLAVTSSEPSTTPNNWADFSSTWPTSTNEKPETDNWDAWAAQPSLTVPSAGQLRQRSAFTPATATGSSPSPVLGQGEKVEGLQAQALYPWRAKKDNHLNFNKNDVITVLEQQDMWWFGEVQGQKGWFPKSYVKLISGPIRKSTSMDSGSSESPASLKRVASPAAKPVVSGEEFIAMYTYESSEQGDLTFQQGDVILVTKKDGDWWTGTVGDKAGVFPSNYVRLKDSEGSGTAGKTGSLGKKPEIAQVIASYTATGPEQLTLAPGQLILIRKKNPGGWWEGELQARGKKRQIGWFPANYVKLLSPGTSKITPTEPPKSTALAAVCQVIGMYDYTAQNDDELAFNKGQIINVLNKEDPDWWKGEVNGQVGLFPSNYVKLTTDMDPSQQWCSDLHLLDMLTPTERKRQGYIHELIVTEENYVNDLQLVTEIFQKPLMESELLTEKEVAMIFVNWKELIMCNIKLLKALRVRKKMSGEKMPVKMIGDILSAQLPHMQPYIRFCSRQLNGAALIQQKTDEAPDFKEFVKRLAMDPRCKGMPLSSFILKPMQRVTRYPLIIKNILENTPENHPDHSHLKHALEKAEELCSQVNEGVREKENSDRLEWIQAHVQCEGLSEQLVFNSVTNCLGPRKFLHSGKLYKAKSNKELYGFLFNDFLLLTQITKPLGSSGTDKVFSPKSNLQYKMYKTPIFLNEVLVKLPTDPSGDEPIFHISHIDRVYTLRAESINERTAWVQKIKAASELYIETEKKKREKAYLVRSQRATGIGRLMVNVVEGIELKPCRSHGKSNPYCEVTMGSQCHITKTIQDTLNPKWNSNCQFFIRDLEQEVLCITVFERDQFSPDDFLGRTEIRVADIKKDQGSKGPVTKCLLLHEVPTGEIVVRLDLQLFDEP
UniProt Q15283: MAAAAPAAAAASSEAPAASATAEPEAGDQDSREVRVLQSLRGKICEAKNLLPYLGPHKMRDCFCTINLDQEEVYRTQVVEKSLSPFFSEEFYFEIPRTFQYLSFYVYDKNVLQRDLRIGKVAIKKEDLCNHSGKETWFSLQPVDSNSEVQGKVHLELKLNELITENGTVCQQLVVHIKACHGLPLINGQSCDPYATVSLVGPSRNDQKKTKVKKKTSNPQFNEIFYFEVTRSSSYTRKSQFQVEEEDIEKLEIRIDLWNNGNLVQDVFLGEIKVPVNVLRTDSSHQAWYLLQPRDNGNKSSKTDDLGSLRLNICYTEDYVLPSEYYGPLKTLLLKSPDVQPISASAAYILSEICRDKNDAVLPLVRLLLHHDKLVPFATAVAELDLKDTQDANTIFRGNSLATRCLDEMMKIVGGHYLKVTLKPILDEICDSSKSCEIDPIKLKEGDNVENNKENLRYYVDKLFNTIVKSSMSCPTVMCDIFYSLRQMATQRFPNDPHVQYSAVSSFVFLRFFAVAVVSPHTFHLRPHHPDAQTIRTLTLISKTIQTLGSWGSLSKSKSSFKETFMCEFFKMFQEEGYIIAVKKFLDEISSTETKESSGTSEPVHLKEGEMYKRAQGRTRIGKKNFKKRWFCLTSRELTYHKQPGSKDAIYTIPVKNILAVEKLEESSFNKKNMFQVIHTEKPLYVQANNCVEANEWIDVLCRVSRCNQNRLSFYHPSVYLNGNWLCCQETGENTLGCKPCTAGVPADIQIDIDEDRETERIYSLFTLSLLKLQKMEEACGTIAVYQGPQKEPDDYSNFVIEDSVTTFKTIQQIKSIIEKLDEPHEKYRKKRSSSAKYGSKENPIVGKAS
UniProt Q15653: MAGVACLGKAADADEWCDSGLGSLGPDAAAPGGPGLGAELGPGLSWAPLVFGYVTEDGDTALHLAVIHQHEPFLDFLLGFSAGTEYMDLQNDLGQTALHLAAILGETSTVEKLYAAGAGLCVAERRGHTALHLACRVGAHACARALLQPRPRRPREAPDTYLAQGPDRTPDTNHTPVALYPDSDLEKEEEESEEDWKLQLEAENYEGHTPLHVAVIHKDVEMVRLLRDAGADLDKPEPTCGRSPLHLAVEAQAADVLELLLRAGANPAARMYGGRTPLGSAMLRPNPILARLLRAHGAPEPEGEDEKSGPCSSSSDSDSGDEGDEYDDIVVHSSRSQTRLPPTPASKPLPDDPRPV
UniProt Q15477, whole entry: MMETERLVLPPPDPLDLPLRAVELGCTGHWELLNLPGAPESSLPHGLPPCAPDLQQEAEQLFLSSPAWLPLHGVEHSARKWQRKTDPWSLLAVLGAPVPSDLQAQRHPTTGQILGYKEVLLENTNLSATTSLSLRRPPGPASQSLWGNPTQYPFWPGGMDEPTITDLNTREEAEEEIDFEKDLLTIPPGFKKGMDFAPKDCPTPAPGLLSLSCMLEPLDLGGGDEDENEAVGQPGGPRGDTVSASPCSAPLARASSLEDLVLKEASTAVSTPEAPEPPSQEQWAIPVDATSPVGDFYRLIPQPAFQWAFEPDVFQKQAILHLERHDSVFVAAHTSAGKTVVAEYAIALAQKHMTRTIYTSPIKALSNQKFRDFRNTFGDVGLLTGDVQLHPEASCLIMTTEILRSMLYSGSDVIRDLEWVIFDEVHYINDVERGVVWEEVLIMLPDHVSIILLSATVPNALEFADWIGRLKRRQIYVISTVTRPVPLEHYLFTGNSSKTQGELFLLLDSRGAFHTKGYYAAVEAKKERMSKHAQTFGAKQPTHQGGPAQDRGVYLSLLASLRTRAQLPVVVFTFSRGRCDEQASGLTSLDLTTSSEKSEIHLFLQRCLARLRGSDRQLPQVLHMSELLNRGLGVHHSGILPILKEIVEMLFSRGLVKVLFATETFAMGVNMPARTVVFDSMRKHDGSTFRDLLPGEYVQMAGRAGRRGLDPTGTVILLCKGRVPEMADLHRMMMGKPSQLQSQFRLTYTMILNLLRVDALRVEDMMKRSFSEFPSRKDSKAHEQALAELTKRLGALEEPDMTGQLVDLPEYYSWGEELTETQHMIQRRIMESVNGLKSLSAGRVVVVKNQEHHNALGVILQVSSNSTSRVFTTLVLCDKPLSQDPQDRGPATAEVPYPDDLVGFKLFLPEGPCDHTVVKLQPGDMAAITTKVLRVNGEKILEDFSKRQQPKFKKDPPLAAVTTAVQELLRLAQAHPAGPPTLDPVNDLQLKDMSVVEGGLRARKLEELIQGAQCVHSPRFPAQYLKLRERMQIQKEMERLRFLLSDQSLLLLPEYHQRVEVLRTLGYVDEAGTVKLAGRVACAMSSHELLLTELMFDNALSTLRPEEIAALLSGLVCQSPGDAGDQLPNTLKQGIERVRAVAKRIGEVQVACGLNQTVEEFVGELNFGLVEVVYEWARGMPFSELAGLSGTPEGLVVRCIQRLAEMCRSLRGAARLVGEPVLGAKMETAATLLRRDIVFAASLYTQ
UniProt Q3ZLR7: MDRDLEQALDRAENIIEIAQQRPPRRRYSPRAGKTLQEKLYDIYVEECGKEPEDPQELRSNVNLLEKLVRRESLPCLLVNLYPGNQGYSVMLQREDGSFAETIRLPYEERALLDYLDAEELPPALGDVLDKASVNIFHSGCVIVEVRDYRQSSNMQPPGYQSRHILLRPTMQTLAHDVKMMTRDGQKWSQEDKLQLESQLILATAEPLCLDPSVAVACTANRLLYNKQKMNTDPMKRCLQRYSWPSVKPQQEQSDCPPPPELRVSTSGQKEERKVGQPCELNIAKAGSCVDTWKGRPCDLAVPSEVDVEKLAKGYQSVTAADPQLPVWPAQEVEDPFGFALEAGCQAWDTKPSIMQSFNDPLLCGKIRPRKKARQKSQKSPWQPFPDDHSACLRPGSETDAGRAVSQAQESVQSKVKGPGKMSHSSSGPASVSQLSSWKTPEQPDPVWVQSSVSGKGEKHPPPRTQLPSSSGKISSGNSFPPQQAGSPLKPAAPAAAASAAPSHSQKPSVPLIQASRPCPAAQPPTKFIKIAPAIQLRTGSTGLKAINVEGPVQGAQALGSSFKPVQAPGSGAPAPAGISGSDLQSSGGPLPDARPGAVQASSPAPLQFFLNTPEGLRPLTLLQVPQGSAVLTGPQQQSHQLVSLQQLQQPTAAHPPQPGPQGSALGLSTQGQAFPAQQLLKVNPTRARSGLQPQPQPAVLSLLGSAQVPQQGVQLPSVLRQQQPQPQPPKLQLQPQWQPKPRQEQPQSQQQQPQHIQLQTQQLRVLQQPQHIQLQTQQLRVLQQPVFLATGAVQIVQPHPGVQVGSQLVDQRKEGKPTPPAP

Each target was assayed with CN[C@@H]1C[C@H]2O[C@@](C)([C@@H]1OC)n1c3ccccc3c3c4c(c5c6ccccc6n2c5c31)C(=O)NC4 [staurosporine] (assay: log2 fold change of tryptic peptide abundance, ligand vs vehicle (limited proteolysis) (log2 ratio); higher = more trypsin-susceptible (destabilized)). Details: ligand concentration: 20 uM; sample: K562 cleared lysate; digestion: 4 min, 22 C (HT-PELSA RT4min, Orbitrap Astral).

Target	log2 fold change
UniProt Q16825 (peptide sequence: TLSASAAEVAPR, peptide start residue: 656)	0.763
SWI5 (peptide sequence: SGQADGTSEESLHLDIQK, peptide start residue: 148) (UniProt Q1ZZU3)	-0.318
CLEC16A (peptide sequence: GSSDPTVQR, peptide start residue: 862) (UniProt Q2KHT3)	-0.122
ADRM1 (peptide sequence: DKKDEEEDMSLD, peptide start residue: 396) (UniProt Q16186)	-0.193
UGP2 (peptide sequence: ILTTASSHEFEHTKK, peptide start residue: 39) (UniProt Q16851)	0.185
PAFAH1B3 (peptide sequence: ELFSPLHALNFGIGGDGTQHVLWR, peptide start residue: 60) (UniProt Q15102)	-0.268
ARL13B (peptide sequence: LEPLGETHHNDFYR, peptide start residue: 394) (UniProt Q3SXY8)	-0.311
USF2 (peptide sequence: TETNGGQVTYR, peptide start residue: 70) (UniProt Q15853)	-0.226
PARP14 (peptide sequence: SKVDIPAHWSDMK, peptide start residue: 1601) (UniProt Q460N5)	0.971
MED22 (peptide sequence: TLQEECDRK, peptide start residue: 107) (UniProt Q15528)	-0.372
PTGES3 (peptide sequence: GESGQSWPR, peptide start residue: 80) (UniProt Q15185)	-0.0841
MAP7D1 (peptide sequence: TPETLLPFAEAEAFLKK, peptide start residue: 813) (UniProt Q3KQU3)	-0.111
UniProt Q2PPJ7 (peptide sequence: IIQTVGGGAVQER, peptide start residue: 333)	0.241
UniProt Q3SXZ3 (peptide sequence: DVMLENYR, peptide start residue: 35)	-0.00335
TAF7 (peptide sequence: GKLQETQDR, peptide start residue: 290) (UniProt Q15545)	0.254
TRIP13 (peptide sequence: IDVAFVDR, peptide start residue: 305) (UniProt Q15645)	0.0907
VPS72 (peptide sequence: PALYRDPVTDIPYATAR, peptide start residue: 298) (UniProt Q15906)	0.631
PGS1 (peptide sequence: LLGLLPGRPGLAALLGR, peptide start residue: 17) (UniProt Q32NB8)	-0.195
ITSN1 (peptide sequence: SGPGSQLNTK, peptide start residue: 188) (UniProt Q15811)	-0.264
RASA2 (peptide sequence: DAIYTIPVK, peptide start residue: 648) (UniProt Q15283)	0.159
NFKBIB (peptide sequence: TPLGSAMLRPNPILAR, peptide start residue: 276) (UniProt Q15653)	0.134
SKIV2L (peptide sequence: DMSVVEGGLR, peptide start residue: 992) (UniProt Q15477)	0.504
NSDHL (peptide sequence: THLTEDTPKVNADIEK, peptide start residue: 16) (UniProt Q15738)	0.24
SNAPC1 (peptide sequence: MEGNSQETERCER, peptide start residue: 246) (UniProt Q16533)	-0.944
PCGF3 (peptide sequence: LVPGLQEAEMR, peptide start residue: 81) (UniProt Q3KNV8)	0.0884
ZSWIM7 (peptide sequence: TCQQLSVSDK, peptide start residue: 117) (UniProt Q19AV6)	-0.805
UniProt Q3ZLR7 (peptide sequence: PQQEQSDCPPPPELR, peptide start residue: 249)	0.0717
ATG2A (peptide sequence: RGQQPADLR, peptide start residue: 1840) (UniProt Q2TAZ0)	0.376

In a second layout: entries from further up.

| Target | log2 fold change |
| --- | --- |
| ADRM1 (peptide sequence: DKKDEEEDMSLD, peptide start residue: 396) (UniProt Q16186) | -0.193 |
| UGP2 (peptide sequence: ILTTASSHEFEHTKK, peptide start residue: 39) (UniProt Q16851) | 0.185 |
